Laboratory results as given in US12673972B2, “Lung-specific targeting-peptide (LTP), compositions, and uses thereof” (University of Pittsburgh—Of the Commonwealth System of …, priority 2019, dated 2026).

System: H9C2 cells
Test: Confocal microscopy of H9C2 cells transduced with linear or cyclic CTP
Type: cell-based, rat
Details: confocal quantification
Text: The cardiac targeting peptide (CTP, SEQ ID NO: 3) was cyclized by establishing a chemical bond between the amino and carboxyl termini (between the alpha-amino group of N-terminal Lysine and the C-terminus of the peptide sequence), and subsequently labelled with a Cy5.5 fluorescent label at the epsilon amino group of the N-terminal lysine.
The cyclic form of CTP was then compared to the linear form of CTP using confocal microscopy of transduced H9C2 cells, using the protocol as described in Example 1 above. […] Quantification of the fluorescence intensity, as shown in FIG. 10B and Table 2, confirmed the enhanced fluorescent activity.

| Sequence | Background (fluorescence) |
| --- | --- |
| APWHLSSQYSRT [Linear CTP, cardiac targeting peptide described in WO2019226785A1, parental peptide, reference compound] | 227.701 |
| KAPWHLSSQYSRT (head-to-tail cyclized; Cy5.5 on lysine) [Cyclic CTP, CTP cyclized via N-terminal lysine alpha-amino group to C-terminus, Cy5.5 at lysine epsilon amino group] | 150.467 |
